Assay [1] concerns the target T1, Suppressor of Hairy wing [Su(Hw)] (Drosophila (endogenous in 0-24 h Oregon R embryos)) (UniProt P08970).
T1 sequence: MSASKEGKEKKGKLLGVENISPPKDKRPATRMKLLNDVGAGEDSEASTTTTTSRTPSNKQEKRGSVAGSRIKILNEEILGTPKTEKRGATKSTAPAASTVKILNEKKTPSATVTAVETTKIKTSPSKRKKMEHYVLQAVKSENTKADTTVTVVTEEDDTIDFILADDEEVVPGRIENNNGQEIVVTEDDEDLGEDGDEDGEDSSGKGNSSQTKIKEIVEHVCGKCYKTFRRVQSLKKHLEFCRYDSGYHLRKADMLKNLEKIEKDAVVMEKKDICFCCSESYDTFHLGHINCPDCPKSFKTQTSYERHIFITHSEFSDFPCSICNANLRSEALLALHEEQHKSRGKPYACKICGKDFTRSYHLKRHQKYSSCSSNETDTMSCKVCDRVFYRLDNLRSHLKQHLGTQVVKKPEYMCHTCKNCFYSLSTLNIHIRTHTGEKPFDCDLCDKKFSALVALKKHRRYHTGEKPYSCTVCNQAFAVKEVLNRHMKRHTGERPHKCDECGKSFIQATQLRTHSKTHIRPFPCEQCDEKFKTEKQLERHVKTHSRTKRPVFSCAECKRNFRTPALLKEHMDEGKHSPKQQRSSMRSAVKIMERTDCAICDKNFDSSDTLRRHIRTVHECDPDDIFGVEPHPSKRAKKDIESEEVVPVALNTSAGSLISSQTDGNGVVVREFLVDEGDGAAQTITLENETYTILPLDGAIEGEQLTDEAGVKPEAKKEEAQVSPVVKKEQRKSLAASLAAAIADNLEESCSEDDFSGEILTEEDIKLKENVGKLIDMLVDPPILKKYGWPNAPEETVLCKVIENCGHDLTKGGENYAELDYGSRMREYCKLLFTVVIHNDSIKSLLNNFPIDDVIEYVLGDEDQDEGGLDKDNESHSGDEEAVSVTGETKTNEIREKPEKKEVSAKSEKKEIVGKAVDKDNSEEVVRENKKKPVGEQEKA
Put plainly: affinity purification with mass spectrometry; immunoaffinity purification from Drosophila embryonic (0-24 h) nuclear extract in HBSMT (50 mM HEPES pH 6.7, 150 mM NaCl, 5 mM KCl, 2.5 mM MgCl2, 0.3% Triton X-100) with antibodies specific for Su(Hw) or CP190; beads washed twice with HBSMT, once with HBSM, eluted with 1% sodium dodecanoate; six replicates pooled; tandem HPLC-mass spectrometry.

Sequences of proteins named here, by UniProt entry; tags and fusion partners are left off. A change or cut given only in a name is not applied to a line headed by its entry.
UniProt Q9VHG6: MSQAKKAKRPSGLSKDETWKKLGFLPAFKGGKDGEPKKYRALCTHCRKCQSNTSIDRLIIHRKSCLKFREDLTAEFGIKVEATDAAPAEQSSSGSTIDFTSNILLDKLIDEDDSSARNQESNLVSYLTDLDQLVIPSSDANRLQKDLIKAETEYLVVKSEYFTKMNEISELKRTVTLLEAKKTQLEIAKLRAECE

Assay [2] addresses T2, Centrosomal protein 190 (CP190) (Drosophila (endogenous in 0-24 h Oregon R embryos)) (UniProt Q24478).
T2 sequence: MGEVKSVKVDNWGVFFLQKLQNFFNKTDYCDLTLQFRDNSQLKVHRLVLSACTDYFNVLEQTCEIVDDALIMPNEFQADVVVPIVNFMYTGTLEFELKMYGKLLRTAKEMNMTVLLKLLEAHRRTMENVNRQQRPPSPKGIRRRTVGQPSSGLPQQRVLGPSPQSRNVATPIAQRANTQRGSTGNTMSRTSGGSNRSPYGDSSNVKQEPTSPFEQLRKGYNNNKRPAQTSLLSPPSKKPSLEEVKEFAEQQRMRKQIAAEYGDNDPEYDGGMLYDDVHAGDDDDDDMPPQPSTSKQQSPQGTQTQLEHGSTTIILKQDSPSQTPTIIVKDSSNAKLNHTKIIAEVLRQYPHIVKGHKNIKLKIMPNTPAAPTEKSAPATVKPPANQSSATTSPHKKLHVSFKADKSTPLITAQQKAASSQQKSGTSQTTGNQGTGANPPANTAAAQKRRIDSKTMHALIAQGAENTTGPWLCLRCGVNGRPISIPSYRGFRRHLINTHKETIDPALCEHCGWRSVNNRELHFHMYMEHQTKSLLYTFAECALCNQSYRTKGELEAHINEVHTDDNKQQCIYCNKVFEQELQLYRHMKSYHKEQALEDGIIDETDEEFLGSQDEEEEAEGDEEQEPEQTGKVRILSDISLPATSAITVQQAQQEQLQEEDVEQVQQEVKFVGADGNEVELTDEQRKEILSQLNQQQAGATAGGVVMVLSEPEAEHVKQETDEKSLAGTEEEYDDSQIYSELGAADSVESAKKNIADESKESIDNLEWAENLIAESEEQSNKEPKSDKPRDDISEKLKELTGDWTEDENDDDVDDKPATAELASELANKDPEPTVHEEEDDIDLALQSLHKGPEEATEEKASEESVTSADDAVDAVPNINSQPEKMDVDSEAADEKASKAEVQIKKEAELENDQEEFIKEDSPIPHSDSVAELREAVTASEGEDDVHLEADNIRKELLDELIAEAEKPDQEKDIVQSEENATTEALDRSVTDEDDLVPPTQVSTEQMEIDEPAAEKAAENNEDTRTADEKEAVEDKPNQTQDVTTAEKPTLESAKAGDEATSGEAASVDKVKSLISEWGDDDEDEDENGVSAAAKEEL
Described as above.

Results are given in words; binding and its absence hold for the method and conditions named. In cells and extracts the contact can be indirect. These calls come from enrichment with a bait or labelling near it, and not all partners need be listed.

For the molecule BEAF-32, in assay [1], the binding entry is “binds”.
For the molecule Ibf1, the binding result in assay [1] and in assay [2] was “binds” each time.
With Ibf2 (from UniProt Q9VHG6), the binding result in assay [1] and in assay [2] was “binds” in each case.

B1: Motif 1 Binding Protein (M1BP) (natural protein, UniProt Q9VHM3 1-418, looked up)
chain: MSKSALKHLKSTCRVCAKYASNKRSPKLFERSNTKMIDNIEALTGLRLENYGCLPDQICECCSMELASAVKLRERCIAAQRELLLGLTEEQRQGISAFYRAAVMGEDIVQTVKTPDDDEVYATYQEIVLEEPKEEIDDTKVEYDNTYYEVAEGHAGEDDAASLIEEADYDSIMAEDEEQQQTLELDEDTELIVGDVNDAYVYDSDDEVAVLDNVLDDEYEHENIVVKKCSLPPKPKVRSDDARRRGTGGVYICEQCGNHIKGRMAFELHCRRHRGDKQFGCELCQSRFCTTSELKRHMRKHTGERPFACKYCGRCFTDYTTRVKHERTHTNERPYVCGTCGKAFTTGYILKNHMLIHSGERAYRCELCDKSFMLPTHLSTHFRSGVHKRHLEKAEMKQVLEQEQKRELKEEEEDSLHI
notes: endogenous protein in embryonic nuclear extract; source: endogenous, nuclear extract of 0-24 h Drosophila embryos
On to B1, for which the binding entry in assay [1] and in assay [2] was “binds” each time.

B2: CCCTC-binding Factor (CTCF), Drosophila (protein, UniProt Q9VS55 1-818)
chain: MPRRTKKDEDPEDLQTFLNNFHKEIEGNSDEKVVNTILEAISAEAIDLDENGAEAGGSKPMEEAEADLDHAEEAEEEEEDDEDKYFIDDEGNCYIKTTPKKQKELQKKLKQAAAKPGKATRSVVSTATNKSINLRPAKSTPKATTSKPPPEPKAISVRPARAAAAKAKQSAMPPPPALVVKVPAPRGRPRKNPVIPKPEPMDLERELEELVDEPDISSMVTELSDYTVDEAAVEAATATLTPNEAEVYEFEDNATTEDENADKKDVDFVLSNKEVKLKTASSTSQNSNASGHKYSCPHCPYTASKKFLITRHSRSHDVEPSFKCSICERSFRSNVGLQNHINTHMGNKPHKCKLCESAFTTSGELVRHTRYKHTKEKPHKCTECTYASVELTKLRRHMTCHTGERPYQCPHCTYASQDMFKLKRHMVIHTGEKKYQCDICKSRFTQSNSLKAHKLIHSVVDKPVFQCNYCPTTCGRKADLRVHIKHMHTSDVPMTCRRCGQQLPDRYQYKLHVKSHEGEKCYSCKLCSYASVTQRHLASHMLIHLDEKPFHCDQCPQAFRQRQLLRRHMNLVHNEEYQPPEPREKLHKCPSCPREFTHKGNLMRHMETHDDSANAREKRRRLKLGRNVRLQKDGTVITLIKDQYVDMDRDQEENEEDDNPESYDLAEIEPENSEAEDADDDVETIVSDPIRQRIKPAPIIINKQARLAASEKQPMIINQRLRSQRGTKTFHIKEEPDNSDFTVEWQGDDGEVMVVELVNGDEEVLVKHEPSANSKISAKNCFGFEDDDDYEEYGDGENEVDGASQEFLQLMDMIEQDS
As to B2, the binding result in assay [1] and in assay [2] was “binds” throughout.

The values are drawn from publication PMC8263732, “M1BP cooperates with CP190 to activate transcription at TAD borders and promote chromatin insulator activity” (Nature Communications, 2021).
